Paper PMC7819943, “Rice protein-binding microarrays: a tool to detect cis-acting elements near promoter regions in rice”
The other results are listed elsewhere or left out.

These sequences were tested against T1, OsSMF1 (Oryza sativa, UniProt Q6ZLB0 1-436) (assay: protein-binding microarray (RPBM); PBS, 2% BSA, 51.3 ng/ul salmon testes DNA, 50 uM zinc acetate, 200 nM TF, 25 C, 1 h; high values mean tight binding). Conditions: protein: recombinant; tags: N-terminal polyhistidine and DsRed monomer fusion (pET32a); chain copies: 2; label: CyDye5-dUTP incorporated in the synthesized complementary strand; 3' TTTTT single-stranded linker to array surface; dsDNA, one strand shown.
T1 sequence: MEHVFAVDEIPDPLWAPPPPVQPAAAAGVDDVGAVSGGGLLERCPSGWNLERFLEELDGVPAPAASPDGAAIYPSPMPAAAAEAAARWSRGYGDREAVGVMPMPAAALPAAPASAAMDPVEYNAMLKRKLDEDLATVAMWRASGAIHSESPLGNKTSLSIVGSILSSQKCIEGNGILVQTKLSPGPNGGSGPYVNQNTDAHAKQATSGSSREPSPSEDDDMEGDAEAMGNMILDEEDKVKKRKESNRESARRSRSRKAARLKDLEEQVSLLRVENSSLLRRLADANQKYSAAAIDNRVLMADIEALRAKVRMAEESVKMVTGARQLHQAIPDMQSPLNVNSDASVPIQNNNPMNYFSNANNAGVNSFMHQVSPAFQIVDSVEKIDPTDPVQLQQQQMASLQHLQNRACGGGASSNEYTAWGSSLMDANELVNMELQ
Summary of the method: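 A custom Agilent array was converted to double-stranded form by primer extension with Cy5-dUTP and blocked with 2% BSA. Protein at 200 nM in PBS with 2% BSA, salmon testes DNA and 50 µM zinc acetate was applied for 1 h at 25 °C, followed by washing. The proteins were polyhistidine–DsRed N-terminal fusions of transcription factors, expressed in E. coli BL21-CodonPlus and Ni–NTA-purified. The binding signal is per-feature fluorescence intensity (arbitrary units) from an Axon 4000B scanner.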

Row | Sequence | binding signal
1 | ACGAAAGCGCCGCCCGCCGCCGCGTCATCTCTTCTCTTCTCGGAGTCACCTAGTGCAG | 10500 fluorescence intensity (a.u.)
2 | TATATGTGGGACCCGTTTGTTATTCACACACACAAAATTGCGGAGTCACCTAGTGCAG | 3750 fluorescence intensity (a.u.)
3 | TAACTATATAAGTACACTTACATGTCATATCAACAGAATTCGGAGTCACCTAGTGCAG | 3420 fluorescence intensity (a.u.)
4 | TTCATCACAGTCTAGTACTTCTTGCACCTGCATCATCTGCCGGAGTCACCTAGTGCAG | 3630 fluorescence intensity (a.u.)
5 | ATAGGTGAGCCTGAACATGAATGAGTCAGCGACGAGTGGACGGAGTCACCTAGTGCAG | 10500 fluorescence intensity (a.u.)
6 | GCAAAAGAGTGTTTCCCTATGCTGACGGCTCACGTCTTCTCGGAGTCACCTAGTGCAG | 4020 fluorescence intensity (a.u.)
7 | ATGCTAGCCGCGCAATCTGCGCGGGCCACCATACTAGTTTCGGAGTCACCTAGTGCAG | 3160 fluorescence intensity (a.u.)
8 | TTGTCTTCTCCCCGATGGCTAGAGTTATGACAGCGAGGGTCGGAGTCACCTAGTGCAG | 4040 fluorescence intensity (a.u.)
9 | TATGTGGTATCTATAACTCTGACACATTATATGCAACTATCGGAGTCACCTAGTGCAG | 3420 fluorescence intensity (a.u.)
10 | AGATAGACAGAGGAAATACCTCGTTTCCCACGTGCACATTCGGAGTCACCTAGTGCAG | 5420 fluorescence intensity (a.u.)
11 | CGCGTGAGCAGACTCCAACCTCTCACCTTAGTCACCTAGCCGGAGTCACCTAGTGCAG | 3340 fluorescence intensity (a.u.)
12 | TCCACTAAACTGGTCCGTCACCCTCGCTGCCCGCTCTGAGCGGAGTCACCTAGTGCAG | 27600 fluorescence intensity (a.u.)
13 | GCAAGCTCGAACTGCCCTAGTCTAAGAGCAAGGATAATAACGGAGTCACCTAGTGCAG | 25800 fluorescence intensity (a.u.)
14 | GGTCCACCCGAATCGGAGTCAGCCAGCCAAGCCACCTAATCGGAGTCACCTAGTGCAG | 4780 fluorescence intensity (a.u.)
15 | CGAAAATGGTTTGCTTCGTAGGATCGTTATTTTGCTTGTTCGGAGTCACCTAGTGCAG | 3770 fluorescence intensity (a.u.)
16 | GCATTCTGAAGATCAACGTGTCTTTGAGTTTGAGAAAACACGGAGTCACCTAGTGCAG | 3500 fluorescence intensity (a.u.)
17 | ATTTGTTCAGTGTACGTGATTCTCATCGCTGACAAACGCTCGGAGTCACCTAGTGCAG | 10200 fluorescence intensity (a.u.)
18 | AAGCCAAAATTTGAATTTTCAAACTTAATTTTGATATTGACGGAGTCACCTAGTGCAG | 26200 fluorescence intensity (a.u.)
19 | CCTGGGCCTCCTCAACGTCACCAGCGACGGCGACACGGGCCGGAGTCACCTAGTGCAG | 3230 fluorescence intensity (a.u.)
20 | TCTGGACCACATAAACGAGAGAGAGAGAGAAGTCCAAGCCCGGAGTCACCTAGTGCAG | 47900 fluorescence intensity (a.u.)
21 | AAGCCATTGGAGAGGAAGGACATAGCTGAGATCGCGGTGGCGGAGTCACCTAGTGCAG | 4180 fluorescence intensity (a.u.)

Reformatted: results already given
Row	Sequence	binding signal
9	TATGTGGTATCTATAACTCTGACACATTATATGCAACTATCGGAGTCACCTAGTGCAG	3420 fluorescence intensity (a.u.)
10	AGATAGACAGAGGAAATACCTCGTTTCCCACGTGCACATTCGGAGTCACCTAGTGCAG	5420 fluorescence intensity (a.u.)

The listing continues.

Row | Sequence | binding signal
22 | ACATCACCACCCACCTCACCCTGCCGCTCCCGAGCGCGATCGGAGTCACCTAGTGCAG | 4000 fluorescence intensity (a.u.)
23 | CAGCACGTGCGTGGTAATCCCGTGTCGGCCCATTATACAACGGAGTCACCTAGTGCAG | 3200 fluorescence intensity (a.u.)
24 | CGGCTTACGGCCGCCTGTCGGGGAAGATGACTCCCTCTTCCGGAGTCACCTAGTGCAG | 5050 fluorescence intensity (a.u.)
25 | GGCAGTCGTGACGGAGACGATGGCCATGTCGTCGAACGAACGGAGTCACCTAGTGCAG | 3160 fluorescence intensity (a.u.)
26 | CGTCAGTCATCGAGTCCACTTCATCATCTAGTCAGAGTGACGGAGTCACCTAGTGCAG | 3970 fluorescence intensity (a.u.)
27 | AGGAGAGGGAAGAGAGAGGGCGCTGACGTTGCATCCTGACCGGAGTCACCTAGTGCAG | 12400 fluorescence intensity (a.u.)
28 | GATGCGATGCGCCGGCCCACGTCGGCCCATCATCTGACGCCGGAGTCACCTAGTGCAG | 5360 fluorescence intensity (a.u.)
29 | CGAGTCGAGTCCCGGTTCGAGTCAGACGCGGGCCGCCTCCCGGAGTCACCTAGTGCAG | 3580 fluorescence intensity (a.u.)
30 | GTACAGTACATGCGCGCGTGCGTGTGCATCATCAGCGATGCGGAGTCACCTAGTGCAG | 7570 fluorescence intensity (a.u.)
31 | AAGTACCTTACCATCCCAACCACCCTATTCTCTCTCTAGCCGGAGTCACCTAGTGCAG | 3550 fluorescence intensity (a.u.)
32 | CCACGAGATGATGATGGCAAGTTCAAACGGAGCTGGAGGCCGGAGTCACCTAGTGCAG | 3200 fluorescence intensity (a.u.)
33 | CCGGCTCATCCGAGAACGCGACGGCCTTGTCACCAGTAATCGGAGTCACCTAGTGCAG | 5050 fluorescence intensity (a.u.)
34 | CCGCGCTGGTGCCACCACTACATGATGCAGTTCACGCACACGGAGTCACCTAGTGCAG | 3910 fluorescence intensity (a.u.)
35 | CTTGGGCTACTCAACCTTGTCAAGCTCCAAGTCACAACCGCGGAGTCACCTAGTGCAG | 3340 fluorescence intensity (a.u.)
36 | TCGCAACTCCACCTTCTTCCCACGCTCTATTGGGTTTAAACGGAGTCACCTAGTGCAG | 3720 fluorescence intensity (a.u.)
37 | CAACGTGACTATTATTTAGGGCAATTACAAATTTACCACTCGGAGTCACCTAGTGCAG | 4320 fluorescence intensity (a.u.)
38 | TGCGCGTGCTGCGTGTCGTACAGCGCATATATAATACTCCCGGAGTCACCTAGTGCAG | 38300 fluorescence intensity (a.u.)
39 | CGCTCCAGTCGACTCACCATCGATCCATCTGACGGTTAGTCGGAGTCACCTAGTGCAG | 4270 fluorescence intensity (a.u.)
40 | AGCACACGTTTTGACTATGCTATCAAGGATGATGTGGCAACGGAGTCACCTAGTGCAG | 9450 fluorescence intensity (a.u.)
41 | TGTTTGGTATTTACTAGACGTCAGATTTACGTCAACAACACGGAGTCACCTAGTGCAG | 4710 fluorescence intensity (a.u.)
42 | CCCGGCGCCGGCGGCCGTGCTGATGCGATGCGTGCATGTCCGGAGTCACCTAGTGCAG | 4360 fluorescence intensity (a.u.)
